Assay results reported in the supplement of paper PMC12067093, “Discovery and optimisation of a covalent ligand for TRIM25 and its application to targeted protein ubiquitination” (Chemical Science, 2025).
Some of the results follow.

Chains of the proteins cited; added tags and fusions are not shown. Lines headed by an entry give the natural chain unless they say otherwise; changes in a name come on top.
UniProt P25325: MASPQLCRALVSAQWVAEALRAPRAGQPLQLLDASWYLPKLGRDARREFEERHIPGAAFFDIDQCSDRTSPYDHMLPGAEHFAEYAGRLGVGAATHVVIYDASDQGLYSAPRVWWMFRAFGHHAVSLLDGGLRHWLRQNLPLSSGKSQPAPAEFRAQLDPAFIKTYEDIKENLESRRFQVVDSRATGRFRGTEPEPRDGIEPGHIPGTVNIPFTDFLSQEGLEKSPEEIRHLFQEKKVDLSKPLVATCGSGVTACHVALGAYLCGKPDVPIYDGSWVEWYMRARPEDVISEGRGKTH
UniProt Q9Y6X9: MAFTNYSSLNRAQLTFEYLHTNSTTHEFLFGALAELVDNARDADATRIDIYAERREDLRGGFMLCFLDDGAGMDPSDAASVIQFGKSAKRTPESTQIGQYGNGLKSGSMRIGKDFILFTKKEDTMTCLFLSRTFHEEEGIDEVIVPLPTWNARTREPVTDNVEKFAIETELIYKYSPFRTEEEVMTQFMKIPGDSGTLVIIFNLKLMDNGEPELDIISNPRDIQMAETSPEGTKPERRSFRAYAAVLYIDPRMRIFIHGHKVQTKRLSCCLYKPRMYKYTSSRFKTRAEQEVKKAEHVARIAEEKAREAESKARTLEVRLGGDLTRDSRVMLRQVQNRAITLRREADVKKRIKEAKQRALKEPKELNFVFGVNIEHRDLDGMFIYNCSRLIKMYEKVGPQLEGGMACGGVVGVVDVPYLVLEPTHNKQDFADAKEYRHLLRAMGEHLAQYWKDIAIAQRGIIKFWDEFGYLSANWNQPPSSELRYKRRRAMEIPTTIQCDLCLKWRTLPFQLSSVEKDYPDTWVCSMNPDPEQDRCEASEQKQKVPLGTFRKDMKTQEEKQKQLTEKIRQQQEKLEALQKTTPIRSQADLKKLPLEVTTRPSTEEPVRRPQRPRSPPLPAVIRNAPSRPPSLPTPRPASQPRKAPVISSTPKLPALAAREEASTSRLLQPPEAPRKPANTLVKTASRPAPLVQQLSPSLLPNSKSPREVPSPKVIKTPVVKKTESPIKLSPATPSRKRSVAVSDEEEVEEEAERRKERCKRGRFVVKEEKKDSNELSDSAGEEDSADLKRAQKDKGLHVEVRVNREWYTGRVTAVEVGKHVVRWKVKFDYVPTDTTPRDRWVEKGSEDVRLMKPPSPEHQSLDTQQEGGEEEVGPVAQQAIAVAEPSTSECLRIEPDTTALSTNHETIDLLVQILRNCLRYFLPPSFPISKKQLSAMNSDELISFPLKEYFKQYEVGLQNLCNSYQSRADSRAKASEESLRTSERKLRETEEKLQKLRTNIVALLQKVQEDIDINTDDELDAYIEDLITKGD
UniProt Q96BX8: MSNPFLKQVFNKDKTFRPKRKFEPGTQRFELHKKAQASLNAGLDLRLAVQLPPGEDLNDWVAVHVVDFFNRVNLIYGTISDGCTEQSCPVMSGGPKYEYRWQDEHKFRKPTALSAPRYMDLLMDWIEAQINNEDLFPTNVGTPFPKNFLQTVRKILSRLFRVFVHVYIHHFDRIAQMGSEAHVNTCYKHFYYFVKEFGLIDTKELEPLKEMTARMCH
UniProt P46013: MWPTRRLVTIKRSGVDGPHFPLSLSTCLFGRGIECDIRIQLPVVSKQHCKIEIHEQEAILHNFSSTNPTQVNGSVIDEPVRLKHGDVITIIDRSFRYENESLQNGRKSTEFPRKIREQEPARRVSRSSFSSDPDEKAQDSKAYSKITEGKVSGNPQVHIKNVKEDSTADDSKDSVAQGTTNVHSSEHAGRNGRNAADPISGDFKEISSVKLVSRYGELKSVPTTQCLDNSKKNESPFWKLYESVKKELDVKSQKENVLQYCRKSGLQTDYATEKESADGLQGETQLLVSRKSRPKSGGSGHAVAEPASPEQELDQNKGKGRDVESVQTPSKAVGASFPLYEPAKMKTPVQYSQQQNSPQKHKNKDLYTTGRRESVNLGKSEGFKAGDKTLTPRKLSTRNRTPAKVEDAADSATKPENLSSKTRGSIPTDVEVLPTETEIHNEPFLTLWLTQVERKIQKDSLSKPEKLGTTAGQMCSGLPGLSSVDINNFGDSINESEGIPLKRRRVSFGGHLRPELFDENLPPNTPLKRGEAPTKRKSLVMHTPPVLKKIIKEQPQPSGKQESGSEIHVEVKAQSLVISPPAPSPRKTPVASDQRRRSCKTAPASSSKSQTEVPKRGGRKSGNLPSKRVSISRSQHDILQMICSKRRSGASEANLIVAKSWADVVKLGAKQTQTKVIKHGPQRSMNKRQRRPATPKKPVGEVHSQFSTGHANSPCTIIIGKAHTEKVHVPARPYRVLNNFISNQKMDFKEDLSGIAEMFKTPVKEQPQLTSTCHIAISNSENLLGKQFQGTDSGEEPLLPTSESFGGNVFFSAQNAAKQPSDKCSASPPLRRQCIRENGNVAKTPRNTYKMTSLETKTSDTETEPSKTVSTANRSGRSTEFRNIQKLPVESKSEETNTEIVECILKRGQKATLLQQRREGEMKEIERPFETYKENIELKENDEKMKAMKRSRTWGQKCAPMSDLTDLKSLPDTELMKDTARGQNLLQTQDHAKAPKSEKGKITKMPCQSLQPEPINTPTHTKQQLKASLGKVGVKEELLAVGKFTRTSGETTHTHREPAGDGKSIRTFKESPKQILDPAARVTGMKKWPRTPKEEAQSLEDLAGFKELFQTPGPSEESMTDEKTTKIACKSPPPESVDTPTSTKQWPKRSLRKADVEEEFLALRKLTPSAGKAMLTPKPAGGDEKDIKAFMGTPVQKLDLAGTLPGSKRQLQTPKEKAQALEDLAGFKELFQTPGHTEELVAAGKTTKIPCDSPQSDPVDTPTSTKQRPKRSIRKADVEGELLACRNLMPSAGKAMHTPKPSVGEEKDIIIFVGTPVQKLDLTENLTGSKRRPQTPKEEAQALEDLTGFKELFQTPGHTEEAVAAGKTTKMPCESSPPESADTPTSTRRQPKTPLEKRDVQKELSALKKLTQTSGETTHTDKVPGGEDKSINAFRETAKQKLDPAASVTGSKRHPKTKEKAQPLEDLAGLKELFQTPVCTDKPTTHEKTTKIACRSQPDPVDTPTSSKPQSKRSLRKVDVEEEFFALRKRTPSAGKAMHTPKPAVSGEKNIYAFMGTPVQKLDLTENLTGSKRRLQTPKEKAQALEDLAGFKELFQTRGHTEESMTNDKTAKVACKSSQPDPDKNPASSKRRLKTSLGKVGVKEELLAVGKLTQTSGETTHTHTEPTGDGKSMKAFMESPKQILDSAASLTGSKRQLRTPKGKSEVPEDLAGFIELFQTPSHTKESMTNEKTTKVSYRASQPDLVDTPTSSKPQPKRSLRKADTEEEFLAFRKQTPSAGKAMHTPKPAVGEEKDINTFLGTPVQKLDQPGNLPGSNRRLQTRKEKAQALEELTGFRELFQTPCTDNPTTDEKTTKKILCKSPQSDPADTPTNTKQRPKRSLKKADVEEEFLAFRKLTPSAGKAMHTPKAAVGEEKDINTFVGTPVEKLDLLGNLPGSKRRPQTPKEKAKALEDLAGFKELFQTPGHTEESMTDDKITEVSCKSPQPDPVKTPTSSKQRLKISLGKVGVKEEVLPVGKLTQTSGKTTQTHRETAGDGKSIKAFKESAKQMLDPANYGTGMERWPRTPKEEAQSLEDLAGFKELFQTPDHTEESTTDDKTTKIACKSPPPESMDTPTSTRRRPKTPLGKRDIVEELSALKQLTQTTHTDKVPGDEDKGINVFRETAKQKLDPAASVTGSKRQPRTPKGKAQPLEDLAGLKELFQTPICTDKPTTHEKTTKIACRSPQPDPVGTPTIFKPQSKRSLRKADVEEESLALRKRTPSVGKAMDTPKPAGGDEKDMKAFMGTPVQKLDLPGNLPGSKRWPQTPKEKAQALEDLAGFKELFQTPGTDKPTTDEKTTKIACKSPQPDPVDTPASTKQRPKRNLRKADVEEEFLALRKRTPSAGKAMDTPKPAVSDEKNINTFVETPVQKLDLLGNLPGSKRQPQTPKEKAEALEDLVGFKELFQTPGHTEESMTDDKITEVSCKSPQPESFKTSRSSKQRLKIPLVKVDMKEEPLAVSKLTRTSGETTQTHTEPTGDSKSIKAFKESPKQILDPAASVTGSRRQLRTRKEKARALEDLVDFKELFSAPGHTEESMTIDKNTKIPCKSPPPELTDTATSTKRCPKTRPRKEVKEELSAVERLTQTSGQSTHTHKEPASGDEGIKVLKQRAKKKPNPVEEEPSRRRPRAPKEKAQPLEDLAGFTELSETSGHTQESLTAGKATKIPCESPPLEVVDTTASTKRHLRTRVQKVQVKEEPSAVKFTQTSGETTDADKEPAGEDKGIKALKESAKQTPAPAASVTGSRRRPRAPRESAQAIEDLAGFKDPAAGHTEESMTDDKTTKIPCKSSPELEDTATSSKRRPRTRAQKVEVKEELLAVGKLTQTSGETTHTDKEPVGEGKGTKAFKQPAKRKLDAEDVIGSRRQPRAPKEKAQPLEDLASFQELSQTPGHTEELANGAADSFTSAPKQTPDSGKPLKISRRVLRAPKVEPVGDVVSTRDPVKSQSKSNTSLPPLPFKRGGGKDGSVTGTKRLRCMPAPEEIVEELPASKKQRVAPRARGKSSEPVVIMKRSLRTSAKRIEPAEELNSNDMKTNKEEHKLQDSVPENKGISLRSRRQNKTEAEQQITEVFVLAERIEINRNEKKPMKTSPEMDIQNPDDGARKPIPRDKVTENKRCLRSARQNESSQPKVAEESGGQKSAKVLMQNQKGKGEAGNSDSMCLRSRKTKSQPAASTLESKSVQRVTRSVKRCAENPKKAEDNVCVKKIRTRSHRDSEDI
UniProt P16455, whole entry, looked up: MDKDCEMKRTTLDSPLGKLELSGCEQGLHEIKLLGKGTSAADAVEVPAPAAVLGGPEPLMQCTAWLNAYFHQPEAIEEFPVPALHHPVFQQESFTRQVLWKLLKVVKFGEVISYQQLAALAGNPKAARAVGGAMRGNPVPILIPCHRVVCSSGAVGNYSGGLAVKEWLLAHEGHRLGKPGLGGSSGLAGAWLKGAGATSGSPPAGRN
UniProt Q8N3F8: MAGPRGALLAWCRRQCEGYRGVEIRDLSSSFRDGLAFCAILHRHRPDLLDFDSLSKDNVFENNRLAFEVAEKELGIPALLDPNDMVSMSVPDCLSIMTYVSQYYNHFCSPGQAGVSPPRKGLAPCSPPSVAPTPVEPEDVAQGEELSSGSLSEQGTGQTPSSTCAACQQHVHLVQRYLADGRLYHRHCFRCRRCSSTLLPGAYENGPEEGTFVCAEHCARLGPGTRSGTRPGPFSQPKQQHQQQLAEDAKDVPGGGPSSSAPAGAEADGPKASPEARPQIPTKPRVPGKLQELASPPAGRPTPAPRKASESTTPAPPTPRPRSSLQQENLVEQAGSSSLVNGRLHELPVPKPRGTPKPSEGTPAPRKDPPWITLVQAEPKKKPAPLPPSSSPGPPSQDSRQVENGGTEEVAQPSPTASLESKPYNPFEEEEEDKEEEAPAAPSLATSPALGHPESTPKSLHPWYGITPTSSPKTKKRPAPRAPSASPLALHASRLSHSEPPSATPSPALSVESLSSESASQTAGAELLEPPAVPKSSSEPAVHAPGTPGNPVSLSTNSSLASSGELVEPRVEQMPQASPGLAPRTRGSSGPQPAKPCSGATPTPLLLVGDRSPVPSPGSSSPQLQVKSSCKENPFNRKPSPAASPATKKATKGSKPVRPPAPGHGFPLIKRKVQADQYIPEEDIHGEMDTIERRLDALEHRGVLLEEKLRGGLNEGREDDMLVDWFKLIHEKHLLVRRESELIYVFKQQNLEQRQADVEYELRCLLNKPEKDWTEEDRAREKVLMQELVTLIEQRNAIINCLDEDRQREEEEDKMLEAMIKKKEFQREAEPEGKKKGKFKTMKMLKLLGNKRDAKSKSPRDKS
UniProt Q7Z6M3: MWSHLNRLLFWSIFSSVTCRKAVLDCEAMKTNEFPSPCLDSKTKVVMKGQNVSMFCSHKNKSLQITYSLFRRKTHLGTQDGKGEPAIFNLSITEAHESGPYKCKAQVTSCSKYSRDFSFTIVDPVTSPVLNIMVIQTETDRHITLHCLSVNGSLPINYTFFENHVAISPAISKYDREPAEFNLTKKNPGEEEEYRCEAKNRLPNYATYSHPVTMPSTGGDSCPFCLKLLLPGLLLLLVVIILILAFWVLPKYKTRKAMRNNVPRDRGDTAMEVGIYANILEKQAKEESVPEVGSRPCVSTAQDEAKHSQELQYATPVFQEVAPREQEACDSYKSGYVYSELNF

Compound: CC1Cc2ccccc2N1C(=O)C1CCCN(C1)C(=O)CCl (mixture of isomers) [TRIM25 ligand 11 (diastereomer mixture)]
Experiment: probe-labelled cysteine peptide fold change vs DMSO (competition) (log2 fold change); higher = less target engagement (more negative = stronger competition)
Settings: THP-1, incubation time: 4 h
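Note: competitive chemoproteomic profiling in live THP-1 cells with an iodoacetamide desthiobiotin (IA-DTB) probe, comparing probe-labelled peptide intensities in compound-treated cells against DMSO-treated controls.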

Row | Target | probe-labelled cysteine peptide fold change (10 µM) | probe-labelled cysteine peptide fold change (50 µM)
1 | MPST_P25325_65_HIPGAAFFDIDQCSDR (UniProt P25325) | 0.0233 | -0.09
2 | MRPL24_Q96A35_190_TYVPCLK (UniProt Q96A35) | -0.0871 | 0.0185
3 | MKRN2_Q9H000_262_FGILSNCNHTYCLSCIR (UniProt Q9H000) | -0.0498 | 0.0932
4 | MRC2_Q9UBG0_187_IYGSEEDLCALPYHEVYTIQGNSHGKPCTIPFK (UniProt Q9UBG0) | 0.0318 | -0.065
5 | MRPL42_Q9Y6G3_45_STYSPLPDDYNCNVELALTSDGR (UniProt Q9Y6G3) | -0.177 | -0.0419
6 | MIOS_Q9NXC5_854+856_DHAECPVSACTCK (UniProt Q9NXC5) | 0.00797 | 0.0234
7 | MICAL2_O94851_552_SGLALCAIIHR (UniProt O94851) | -0.285 | -0.0658
8 | MORC2_Q9Y6X9_499+502_AMEIPTTIQCDLCLK (UniProt Q9Y6X9) | -0.152 | 0.00238
9 | MOSPD2_Q8NHP6_442_CHTVESSKPNTLTLK (UniProt Q8NHP6) | 0.0234 | -0.101
10 | MOB3A_Q96BX8_186_IAQMGSEAHVNTCYK (UniProt Q96BX8) | 0.138 | 0.153
11 | MKI67_P46013_3014_CMPAPEEIVEELPASK (UniProt P46013) | -0.0999 | -0.0562
12 | MGMT_P16455_24_LELSGCEQGLHEIK (UniProt P16455) | -0.216 | -0.404
13 | MICALL1_Q8N3F8_597_GSSGPQPAKPCSGATPTPLLLVGDR (UniProt Q8N3F8) | -0.0838 | -0.301
14 | MILR1_Q7Z6M3_297_EESVPEVGSRPCVSTAQDEAK (UniProt Q7Z6M3) | -0.147 | -0.191

Two records picked at random from the list so far, as already listed:
Row | Target | probe-labelled cysteine peptide fold change (10 µM) | probe-labelled cysteine peptide fold change (50 µM)
13 | MICALL1_Q8N3F8_597_GSSGPQPAKPCSGATPTPLLLVGDR (UniProt Q8N3F8) | -0.0838 | -0.301
8 | MORC2_Q9Y6X9_499+502_AMEIPTTIQCDLCLK (UniProt Q9Y6X9) | -0.152 | 0.00238
